“And” between values parts separate entries of the source, which are not always exact repeats. Identical values can stand only once. At least one structure is not confirmed: it was looked up by name or label, or the drawing left a doubt.
Assays:
[1] = Effect of folding plus sterilization on balloon coating (drug retained vs batch average)
[2] = Effect of pleating/folding on balloon coating (drug retained vs batch average)

## CO[C@H]1C[C@@H]2CC[C@@H](C)[C@@](O)(O2)C(=O)C(=O)N2CCCC[C@H]2C(=O)O[C@H]([C@H](C)C[C@@H]2CC[C@@H](O)[C@H](OC)C2)CC(=O)[C@H](C)/C=C(\C)[C@@H](O)[C@@H](OC)C(=O)[C@H](C)C[C@H](C)/C=C/C=C/C=C/1C [sirolimus]
[1]; folding and sterilization, all balloon sizes
  Average percent coating retained: 83.8%
[1]; folding and sterilization, balloon 3 × 17 mm, batch average 57.6 ug
  % of Batch Average retained: 88.3% and 65.8% and 79.9%
[1]; folding and sterilization, balloon 3 × 18 mm, batch average 73.9 ug
  % of Batch Average retained: 95.9% and 86.3% and 81.5% and 80.6%
[1]; folding and sterilization, balloon 3 × 23 mm, batch average 62.5 ug
  % of Batch Average retained: 104.8% and 70.8%
[1]; pleating (folding) and sterilization, vs batch average for balloon size
  amount of drug lost on average: 16.2%
[2]; pleating (folding) process, vs batch average for balloon size
  amount of drug lost on average: 8%
[2]; post pleat/fold, all balloon sizes
  Average percent coating retained: 92.0%
[2]; post pleat/fold, balloon 3 × 17 mm, batch average 61.3 ug
  % of Batch Average retained: 95.9% and 88.5% and 75.5%
[2]; post pleat/fold, balloon 3 × 18 mm, batch average 76 ug
  % of Batch Average retained: 109.4% and 89.3% and 78.3% and 123.4%
[2]; post pleat/fold, balloon 3 × 23 mm, batch average 62.8 ug
  % of Batch Average retained: 93.7% and 74.2%

— US20120177742A1, “NANOPARTICLE AND SURFACE-MODIFIED PARTICULATE COATINGS, COATED BALLOONS, AND METHODS THEREFORE” (MICELL TECHNOLOGIES, INC., priority 2010, published 2012)
